Measured values from the supplement of paper PMC12819154, “High-throughput peptide-centric local stability assay extends protein–ligand identification to membrane proteins, tissues and bacteria” (Nature Structural & Molecular Biology, 2025).
This is a selection; strong and weak results do not stand in their true shares. Most values lie at the level of the controls, where differences are scatter.

Chains of the proteins cited; added tags and fusions are not shown. Lines headed by an entry give the natural chain unless they say otherwise; changes in a name come on top.
UniProt P75931: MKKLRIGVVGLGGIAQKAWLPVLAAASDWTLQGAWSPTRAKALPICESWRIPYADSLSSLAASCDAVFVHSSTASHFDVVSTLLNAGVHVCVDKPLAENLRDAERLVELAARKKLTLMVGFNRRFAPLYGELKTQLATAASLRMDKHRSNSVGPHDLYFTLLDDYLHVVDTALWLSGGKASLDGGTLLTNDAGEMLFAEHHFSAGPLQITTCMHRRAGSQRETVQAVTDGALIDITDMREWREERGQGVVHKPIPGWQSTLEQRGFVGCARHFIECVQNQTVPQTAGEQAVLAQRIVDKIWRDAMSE
UniProt P77162: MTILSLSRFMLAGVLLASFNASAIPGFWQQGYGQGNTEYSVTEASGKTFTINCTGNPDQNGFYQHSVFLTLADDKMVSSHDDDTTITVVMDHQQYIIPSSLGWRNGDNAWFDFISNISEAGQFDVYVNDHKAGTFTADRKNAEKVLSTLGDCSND
UniProt P76498: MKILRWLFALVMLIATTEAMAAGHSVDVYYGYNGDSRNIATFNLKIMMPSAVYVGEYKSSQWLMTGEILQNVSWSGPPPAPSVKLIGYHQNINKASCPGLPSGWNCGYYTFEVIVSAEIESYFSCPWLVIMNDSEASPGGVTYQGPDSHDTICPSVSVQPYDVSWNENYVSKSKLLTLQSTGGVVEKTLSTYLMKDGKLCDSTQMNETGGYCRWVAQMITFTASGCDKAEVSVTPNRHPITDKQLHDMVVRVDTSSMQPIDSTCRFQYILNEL
UniProt P75952: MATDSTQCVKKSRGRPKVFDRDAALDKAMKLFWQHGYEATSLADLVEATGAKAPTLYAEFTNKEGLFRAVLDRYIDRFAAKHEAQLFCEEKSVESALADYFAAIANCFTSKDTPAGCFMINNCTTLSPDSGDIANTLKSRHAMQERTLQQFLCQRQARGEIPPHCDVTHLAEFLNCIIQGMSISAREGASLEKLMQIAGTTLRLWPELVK
UniProt P75972: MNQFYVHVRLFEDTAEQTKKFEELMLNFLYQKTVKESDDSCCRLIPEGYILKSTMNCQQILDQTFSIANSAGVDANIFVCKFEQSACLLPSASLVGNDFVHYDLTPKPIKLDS
UniProt P76342: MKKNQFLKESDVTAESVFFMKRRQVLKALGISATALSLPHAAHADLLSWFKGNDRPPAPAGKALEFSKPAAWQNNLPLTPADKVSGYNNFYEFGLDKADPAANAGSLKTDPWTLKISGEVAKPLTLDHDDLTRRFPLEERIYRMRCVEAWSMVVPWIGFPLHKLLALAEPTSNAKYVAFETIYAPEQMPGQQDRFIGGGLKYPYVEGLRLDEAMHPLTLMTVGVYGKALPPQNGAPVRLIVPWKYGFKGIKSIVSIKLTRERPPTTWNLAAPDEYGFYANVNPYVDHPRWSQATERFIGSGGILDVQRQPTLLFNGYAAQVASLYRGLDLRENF
UniProt P76394: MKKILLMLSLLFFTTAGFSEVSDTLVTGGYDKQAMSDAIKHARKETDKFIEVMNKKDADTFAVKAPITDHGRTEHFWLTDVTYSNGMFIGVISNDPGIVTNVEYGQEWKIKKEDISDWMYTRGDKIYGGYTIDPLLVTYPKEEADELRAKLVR
UniProt P75694: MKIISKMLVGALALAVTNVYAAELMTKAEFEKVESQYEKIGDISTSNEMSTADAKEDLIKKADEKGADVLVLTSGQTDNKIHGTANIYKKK
UniProt P75849: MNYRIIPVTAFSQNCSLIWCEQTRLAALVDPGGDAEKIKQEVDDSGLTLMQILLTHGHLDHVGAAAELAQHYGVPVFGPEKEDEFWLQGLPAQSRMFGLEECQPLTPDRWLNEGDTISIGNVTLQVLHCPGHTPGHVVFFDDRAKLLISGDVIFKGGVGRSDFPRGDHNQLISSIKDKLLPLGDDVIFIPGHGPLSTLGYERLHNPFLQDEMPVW
UniProt P76008: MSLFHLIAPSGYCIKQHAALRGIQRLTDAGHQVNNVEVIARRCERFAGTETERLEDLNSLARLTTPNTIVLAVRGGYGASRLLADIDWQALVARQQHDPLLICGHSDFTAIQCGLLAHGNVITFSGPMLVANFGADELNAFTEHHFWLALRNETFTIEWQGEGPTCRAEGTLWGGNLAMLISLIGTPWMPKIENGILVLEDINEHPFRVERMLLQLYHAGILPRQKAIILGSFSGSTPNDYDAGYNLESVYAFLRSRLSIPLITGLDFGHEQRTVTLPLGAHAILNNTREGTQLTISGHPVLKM
UniProt P75811: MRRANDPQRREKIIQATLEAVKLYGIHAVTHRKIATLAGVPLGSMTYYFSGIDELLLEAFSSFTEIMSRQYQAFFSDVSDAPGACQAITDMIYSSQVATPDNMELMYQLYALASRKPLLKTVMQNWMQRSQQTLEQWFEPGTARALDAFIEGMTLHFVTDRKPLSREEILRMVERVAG
UniProt P75862: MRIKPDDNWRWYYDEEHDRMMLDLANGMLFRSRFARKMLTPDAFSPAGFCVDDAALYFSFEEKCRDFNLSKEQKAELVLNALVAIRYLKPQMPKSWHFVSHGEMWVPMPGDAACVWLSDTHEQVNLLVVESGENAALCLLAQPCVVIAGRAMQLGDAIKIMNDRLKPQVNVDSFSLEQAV
UniProt P76121: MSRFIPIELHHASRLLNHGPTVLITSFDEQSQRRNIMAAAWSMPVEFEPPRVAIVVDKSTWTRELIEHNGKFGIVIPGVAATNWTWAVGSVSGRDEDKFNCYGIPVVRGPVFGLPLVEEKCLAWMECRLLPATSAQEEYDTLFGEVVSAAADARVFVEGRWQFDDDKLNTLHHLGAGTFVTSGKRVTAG
UniProt P77218: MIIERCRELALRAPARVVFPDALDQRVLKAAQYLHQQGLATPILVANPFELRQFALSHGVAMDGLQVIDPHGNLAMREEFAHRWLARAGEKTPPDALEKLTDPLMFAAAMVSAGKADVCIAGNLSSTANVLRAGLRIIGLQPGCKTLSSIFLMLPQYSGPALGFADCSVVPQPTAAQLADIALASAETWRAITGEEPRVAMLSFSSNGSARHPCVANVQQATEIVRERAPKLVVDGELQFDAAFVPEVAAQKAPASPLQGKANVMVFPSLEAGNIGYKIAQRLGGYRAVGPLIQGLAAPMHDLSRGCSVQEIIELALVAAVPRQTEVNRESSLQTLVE
UniProt P76547: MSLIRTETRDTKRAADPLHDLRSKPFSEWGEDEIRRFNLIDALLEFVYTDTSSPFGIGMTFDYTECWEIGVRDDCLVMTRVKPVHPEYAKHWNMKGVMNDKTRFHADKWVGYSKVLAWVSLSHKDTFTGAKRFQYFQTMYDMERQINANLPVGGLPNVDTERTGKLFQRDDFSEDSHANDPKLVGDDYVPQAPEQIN
UniProt P76513: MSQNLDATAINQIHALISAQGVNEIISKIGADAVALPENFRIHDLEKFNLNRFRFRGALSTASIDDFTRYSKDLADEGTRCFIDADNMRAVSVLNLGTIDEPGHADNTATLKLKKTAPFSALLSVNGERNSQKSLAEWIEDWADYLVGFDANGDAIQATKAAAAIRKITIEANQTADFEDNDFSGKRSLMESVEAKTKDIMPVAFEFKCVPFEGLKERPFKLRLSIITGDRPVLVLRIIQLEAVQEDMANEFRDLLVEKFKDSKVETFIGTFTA
UniProt P77214: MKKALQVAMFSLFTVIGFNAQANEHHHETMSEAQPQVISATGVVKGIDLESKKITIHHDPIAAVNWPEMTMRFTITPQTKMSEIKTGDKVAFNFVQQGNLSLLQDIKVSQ
UniProt P69423: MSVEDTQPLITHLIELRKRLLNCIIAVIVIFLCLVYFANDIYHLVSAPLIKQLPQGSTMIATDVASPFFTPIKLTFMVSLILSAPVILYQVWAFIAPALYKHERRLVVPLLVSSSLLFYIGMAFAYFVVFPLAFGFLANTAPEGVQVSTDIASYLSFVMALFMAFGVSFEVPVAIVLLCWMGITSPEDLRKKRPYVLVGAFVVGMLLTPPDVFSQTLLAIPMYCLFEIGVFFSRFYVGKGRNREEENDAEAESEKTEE
UniProt P75764: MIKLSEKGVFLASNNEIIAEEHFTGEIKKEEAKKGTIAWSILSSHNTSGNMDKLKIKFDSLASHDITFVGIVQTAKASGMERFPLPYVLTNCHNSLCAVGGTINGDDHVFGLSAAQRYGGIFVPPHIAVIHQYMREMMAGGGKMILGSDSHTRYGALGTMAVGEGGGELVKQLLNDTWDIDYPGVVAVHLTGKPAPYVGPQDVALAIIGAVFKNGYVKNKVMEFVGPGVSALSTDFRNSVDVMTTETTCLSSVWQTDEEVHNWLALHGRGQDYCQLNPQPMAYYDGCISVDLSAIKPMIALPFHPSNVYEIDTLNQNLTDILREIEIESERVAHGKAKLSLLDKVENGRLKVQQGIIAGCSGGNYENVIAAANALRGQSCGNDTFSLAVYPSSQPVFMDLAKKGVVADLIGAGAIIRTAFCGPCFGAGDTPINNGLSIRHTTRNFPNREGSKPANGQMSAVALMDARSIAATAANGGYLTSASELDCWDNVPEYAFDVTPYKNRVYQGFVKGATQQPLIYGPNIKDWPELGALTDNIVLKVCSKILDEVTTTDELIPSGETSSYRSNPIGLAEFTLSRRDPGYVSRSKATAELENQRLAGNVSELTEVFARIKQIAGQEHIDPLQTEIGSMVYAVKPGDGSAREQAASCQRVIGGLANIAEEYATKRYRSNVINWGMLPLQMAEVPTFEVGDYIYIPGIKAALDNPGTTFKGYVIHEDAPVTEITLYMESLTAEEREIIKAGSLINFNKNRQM
UniProt P76541: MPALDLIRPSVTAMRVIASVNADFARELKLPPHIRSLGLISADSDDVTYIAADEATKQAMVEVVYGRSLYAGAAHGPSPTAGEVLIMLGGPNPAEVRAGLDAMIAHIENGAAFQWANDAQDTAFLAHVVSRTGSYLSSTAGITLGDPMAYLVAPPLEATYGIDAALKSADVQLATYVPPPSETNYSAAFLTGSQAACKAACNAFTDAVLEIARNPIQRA
UniProt P76117: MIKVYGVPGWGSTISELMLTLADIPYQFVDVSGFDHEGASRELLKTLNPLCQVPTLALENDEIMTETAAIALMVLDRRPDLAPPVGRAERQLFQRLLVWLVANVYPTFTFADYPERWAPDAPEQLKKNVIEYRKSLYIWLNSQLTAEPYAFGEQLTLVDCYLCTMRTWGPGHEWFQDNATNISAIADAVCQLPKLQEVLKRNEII
UniProt P76082: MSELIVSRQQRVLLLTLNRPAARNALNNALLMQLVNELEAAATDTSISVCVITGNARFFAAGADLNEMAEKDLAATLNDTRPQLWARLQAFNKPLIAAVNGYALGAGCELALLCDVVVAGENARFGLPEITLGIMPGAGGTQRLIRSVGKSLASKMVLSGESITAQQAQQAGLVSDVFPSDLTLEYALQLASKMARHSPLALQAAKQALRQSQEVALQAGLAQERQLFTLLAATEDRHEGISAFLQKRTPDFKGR
UniProt P75937: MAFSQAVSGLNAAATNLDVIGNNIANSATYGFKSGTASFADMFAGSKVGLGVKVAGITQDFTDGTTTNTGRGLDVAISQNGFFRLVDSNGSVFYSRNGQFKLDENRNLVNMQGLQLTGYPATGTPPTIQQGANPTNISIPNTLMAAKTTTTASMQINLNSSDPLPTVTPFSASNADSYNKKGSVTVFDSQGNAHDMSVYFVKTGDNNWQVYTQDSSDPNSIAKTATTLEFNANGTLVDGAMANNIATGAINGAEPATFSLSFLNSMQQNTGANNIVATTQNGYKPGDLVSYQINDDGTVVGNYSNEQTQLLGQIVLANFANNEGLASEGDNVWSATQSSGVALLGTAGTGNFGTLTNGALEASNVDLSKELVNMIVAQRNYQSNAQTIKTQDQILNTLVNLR
UniProt P76104: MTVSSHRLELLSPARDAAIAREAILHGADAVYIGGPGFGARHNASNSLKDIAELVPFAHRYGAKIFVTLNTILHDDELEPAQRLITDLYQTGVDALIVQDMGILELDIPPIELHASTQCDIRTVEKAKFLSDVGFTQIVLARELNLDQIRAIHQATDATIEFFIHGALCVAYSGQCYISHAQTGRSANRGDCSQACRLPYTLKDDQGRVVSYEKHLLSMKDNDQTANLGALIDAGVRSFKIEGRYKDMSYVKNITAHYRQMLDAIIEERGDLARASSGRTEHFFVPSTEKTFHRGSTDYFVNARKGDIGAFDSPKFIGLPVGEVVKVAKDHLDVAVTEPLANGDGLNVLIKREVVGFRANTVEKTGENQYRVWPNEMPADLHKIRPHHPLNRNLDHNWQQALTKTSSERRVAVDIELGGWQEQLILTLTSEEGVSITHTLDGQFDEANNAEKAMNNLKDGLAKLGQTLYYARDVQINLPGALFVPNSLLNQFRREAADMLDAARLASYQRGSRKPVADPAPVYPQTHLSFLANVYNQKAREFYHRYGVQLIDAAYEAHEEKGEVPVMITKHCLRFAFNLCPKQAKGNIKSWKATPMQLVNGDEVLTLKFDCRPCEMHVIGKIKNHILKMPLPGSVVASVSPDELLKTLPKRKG
UniProt P76573: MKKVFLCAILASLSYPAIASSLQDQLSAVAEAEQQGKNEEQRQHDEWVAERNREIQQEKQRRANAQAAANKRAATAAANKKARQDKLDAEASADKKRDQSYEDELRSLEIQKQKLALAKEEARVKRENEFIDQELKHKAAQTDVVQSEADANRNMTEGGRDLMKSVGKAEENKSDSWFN

compound: Nc1ncnc2c1ncn2[C@@H]1O[C@H](COP(=O)(O)OP(=O)(O)OP(=O)(O)O)[C@@H](O)[C@H]1O [adenosine 5'-triphosphate]; assay: log2 fold change of tryptic peptide abundance, ligand vs vehicle (limited proteolysis) (log2 ratio); higher = more trypsin-susceptible (destabilized); conditions: ligand concentration: 5 mM; sample: E. coli desalted lysate; replicate design: treated before aliquoting
Method: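 HT-PELSA: desalted E. coli K-12 BW25113 lysate (with 12 mM MgCl2) incubated with 5 mM ATP (pH 7) or water for 30 min at 25 C, then a 4 min trypsin pulse at 22 C. Peptides were quantified by DIA-MS (4 replicates). Value is the peptide log2 fold change (treated/control); negative = stabilized. Scale: negative = ligand-stabilized region.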
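Further: lysate desalted by size exclusion to strip endogenous ATP, peptide intensities built from DIA-NN precursor signals, and peptides missing any value discarded before comparison.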

Target	log2 fold change
UniProt P75931 (peptide sequence: ALPICESWR, peptide start residue: 42)	0.468
UniProt P77162 (peptide sequence: AGTFTADRK, peptide start residue: 132)	0.558
UniProt P76498 (peptide sequence: LLTLQSTGGVVEK, peptide start residue: 175)	0.316
UniProt P75952 (peptide sequence: APTLYAEFTNK, peptide start residue: 53)	-0.363
UniProt P76537 (peptide sequence: IGTPFSDLYSK, peptide start residue: 122)	0.287
UniProt P75972 (peptide sequence: LFEDTAEQTK, peptide start residue: 10)	-0.111
UniProt P76342 (peptide sequence: GNDRPPAPAGK, peptide start residue: 52)	-0.445
UniProt P76394 (peptide sequence: EEADELR, peptide start residue: 142)	0.291
UniProt P75694 (peptide sequence: IHGTANIYKKK, peptide start residue: 81)	0.151
UniProt P75849 (peptide sequence: LLISGDVIFK, peptide start residue: 146)	0.35
UniProt P76008 (peptide sequence: LTDAGHQVNNVEVIAR, peptide start residue: 26)	-0.0947
UniProt P76102 (peptide sequence: FQLRPGGQQECEMR, peptide start residue: 9)	-0.392
UniProt P76559 (peptide sequence: GLSDCGIQAR, peptide start residue: 303)	0.475
UniProt P75811 (peptide sequence: LYGIHAVTHR, peptide start residue: 23)	0.165
UniProt P75862 (peptide sequence: YLKPQMPK, peptide start residue: 87)	0.804
UniProt P76121 (peptide sequence: CLAWMECR, peptide start residue: 121)	-0.498
UniProt P75992 (peptide sequence: SAEEDAFRR, peptide start residue: 42)	0.68
UniProt P77218 (peptide sequence: APASPLQGK, peptide start residue: 253)	0.481
UniProt P75792 (peptide sequence: FMAQYQELK, peptide start residue: 26)	0.344
UniProt P76576 (peptide sequence: YWNSHQVDSAR, peptide start residue: 41)	0.865

Single entries from the list:
Value of UniProt P75792 (peptide sequence: FMAQYQELK, peptide start residue: 26) under log2 fold change: 0.344
Value of UniProt P75811 (peptide sequence: LYGIHAVTHR, peptide start residue: 23) under log2 fold change: 0.165

Later entries:

Target	log2 fold change
UniProt P76520 (peptide sequence: QYYEANLALK, peptide start residue: 186)	-0.132
UniProt P76547 (peptide sequence: FHADKWVGYSK, peptide start residue: 104)	-0.291
UniProt P76513 (peptide sequence: SLMESVEAK, peptide start residue: 188)	0.0642
UniProt P76083 (peptide sequence: GKLTAETCER, peptide start residue: 59)	-0.4
UniProt P77214 (peptide sequence: FTITPQTK, peptide start residue: 73)	0.375
UniProt P77212 (peptide sequence: TLVHDAQQHTDFVR, peptide start residue: 53)	-0.957
UniProt P69423 (peptide sequence: NREEENDAEAESEKTEE, peptide start residue: 242)	-0.224
UniProt P75764 (peptide sequence: AALDNPGTTFK, peptide start residue: 701)	-0.557
UniProt P75734 (peptide sequence: VLDYQQCLR, peptide start residue: 74)	0.394
UniProt P76541 (peptide sequence: VIASVNADFAR, peptide start residue: 16)	-0.448
UniProt P77165 (peptide sequence: TEQLEVDTR, peptide start residue: 71)	0.027
UniProt P75989 (peptide sequence: WISNGVPVGK, peptide start residue: 56)	0.156
UniProt P76117 (peptide sequence: WAPDAPEQLKK, peptide start residue: 117)	0.613
UniProt P75672 (peptide sequence: KTSPYNSR, peptide start residue: 145)	-0.236
UniProt P76082 (peptide sequence: HSPLALQAAK, peptide start residue: 197)	0.5
UniProt P76250 (peptide sequence: QVVAPALLALAK, peptide start residue: 108)	-0.312
UniProt P75801 (peptide sequence: KSFDEDLK, peptide start residue: 307)	-0.774
UniProt P75937 (peptide sequence: ELVNMIVAQR, peptide start residue: 370)	0.172
UniProt P76104 (peptide sequence: ELNLDQIR, peptide start residue: 143)	0.482
UniProt P76573 (peptide sequence: LALAKEEAR, peptide start residue: 115)	-0.81
